The text below walks through data of paper PMC8469697.

Protein sequences, listed by entry. Tags and fused reporters are not part of them.
UniProt P32121: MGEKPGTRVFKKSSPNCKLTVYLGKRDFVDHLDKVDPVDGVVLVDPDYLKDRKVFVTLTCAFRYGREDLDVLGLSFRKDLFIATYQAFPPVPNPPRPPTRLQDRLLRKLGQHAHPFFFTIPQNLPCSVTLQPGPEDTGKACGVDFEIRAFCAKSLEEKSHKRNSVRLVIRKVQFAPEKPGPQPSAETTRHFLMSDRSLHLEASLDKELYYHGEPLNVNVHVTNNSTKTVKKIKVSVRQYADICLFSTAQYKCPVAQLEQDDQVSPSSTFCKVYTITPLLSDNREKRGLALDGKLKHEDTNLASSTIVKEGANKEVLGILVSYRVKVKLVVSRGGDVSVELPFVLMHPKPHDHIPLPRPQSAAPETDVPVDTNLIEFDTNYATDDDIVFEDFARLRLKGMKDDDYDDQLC

Results are given in words; binding and its absence hold for the method and conditions named. In cells and extracts the contact can be indirect. Where a sequence is shown, tags or fusion partners need not be part of it.

The target of the assay is T1, Follicle-stimulating hormone receptor C-terminally fused with donor Rluc8 (UniProt P23945).
T1 sequence: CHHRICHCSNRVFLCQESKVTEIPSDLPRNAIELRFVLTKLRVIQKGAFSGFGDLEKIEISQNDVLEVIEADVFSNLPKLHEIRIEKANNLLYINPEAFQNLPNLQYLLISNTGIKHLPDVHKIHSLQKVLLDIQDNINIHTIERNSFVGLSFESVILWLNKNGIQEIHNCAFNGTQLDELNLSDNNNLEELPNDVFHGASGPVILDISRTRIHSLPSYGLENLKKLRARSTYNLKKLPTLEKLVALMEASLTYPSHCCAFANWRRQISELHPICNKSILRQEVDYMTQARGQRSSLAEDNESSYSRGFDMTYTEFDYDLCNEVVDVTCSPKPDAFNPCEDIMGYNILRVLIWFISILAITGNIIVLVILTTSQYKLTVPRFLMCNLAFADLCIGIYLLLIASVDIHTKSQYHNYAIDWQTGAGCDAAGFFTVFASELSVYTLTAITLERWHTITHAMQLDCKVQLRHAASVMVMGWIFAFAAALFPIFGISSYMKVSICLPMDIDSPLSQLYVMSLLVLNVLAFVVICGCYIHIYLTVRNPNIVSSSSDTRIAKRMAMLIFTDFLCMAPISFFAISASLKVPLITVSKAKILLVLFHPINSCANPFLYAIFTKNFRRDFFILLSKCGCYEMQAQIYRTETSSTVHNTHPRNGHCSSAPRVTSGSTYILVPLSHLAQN
The assay is described as follows: condition: only in HEK293/ΔGαs cells with B1 as the only ligand (10^-10 to 10^-4 M); FRET or BRET; as a1, HEK293/ΔGαs cells, B1 as the only ligand (10^-10 to 10^-4 M). (In general: In BRET a luciferase serves as donor, and the signal depends on an acceptor being close.)

“β-arrestin 2 N-terminally fused to the BRET acceptor yPET (from UniProt P32121 1-409)”: the binding entry was “no binding”.
